{"source": "paper PMC12040169", "about": "(PLOS Biology, 2025)", "note": "The other results are listed elsewhere or left out.", "data": [{"test_system": "T1, CTL2-GFP (C. trachomatis L2/434/Bu, GFP-expressing)", "T1 construct": "L2/434/Bu, GFP-expressing", "design": "species or system HeLa; Intracellular C. trachomatis growth in HeLa cells, bulk GFP fluorescence relative to DMSO", "details": "bulk GFP, single well; 28.5 h, 10 µM; inhibitor", "units": {"% of control remaining": "%"}, "values": [{"compound": "OCCN1CCN(C(=S)NC2CCCC2)CC1", "note": "[CBK265886]", "% of control remaining": 134.054}, {"compound": "O=C(O)c1ccc2c(c1)C(=O)N(c1ccc3c(c1)Cc1cc(N4C(=O)c5ccc(C(=O)O)cc5C4=O)ccc1-3)C2=O", "note": "[CBK261333]", "% of control remaining": 115.53}, {"compound": "COc1ccc2[nH]c3c(c2c1)CCN(C(C)=O)C31CCNCC1", "note": "[CBK284429]", "% of control remaining": 107.801}, {"compound": "CC(C)C(NS(=O)(=O)c1ccc(I)cc1)C(=O)O", "note": "(stereo not drawn) [CBK268703]", "% of control remaining": 106.978}, {"compound": "CS(=O)(=O)N1CC2(CCN(Cc3cc(=O)[nH]c(=O)[nH]3)CC2)c2ccccc21", "note": "[CBK126679]", "% of control remaining": 117.902}, {"compound": "N#C/C(=C\\c1cn(CCC(N)=O)c2ccccc12)c1nc2ccccc2[nH]1", "note": "[CBK267966]", "% of control remaining": 133.447}, {"compound": "COc1ccc([C@@]23CC[C@@H](NC(=O)Nc4cccc(-c5cnco5)c4)C[C@@H]2N(C)CC3)cc1OC", "note": "[CBK059338T]", "% of control remaining": 98.682}, {"compound": "COc1ccc(Nc2cc(-c3ccco3)ncn2)c(OC)c1", "note": "[CBK090761]", "% of control remaining": 72.8381}, {"compound": "CC(=O)N1CC[C@H]2NC(=O)CNC(=O)C3(CCCC[C@H]2C1)CCN(C(=O)/C=C/c1ccccc1)CC3", "note": "[CBK292092]", "% of control remaining": 123.671}, {"compound": "O=S(=O)(NCc1ccc(C(F)(F)F)cc1)c1cccs1", "note": "[CBK043744]", "% of control remaining": 116.785}, {"compound": "CCCCN(/C=N/S(=O)(=O)c1ccccc1)CCCC", "note": "[CBK026576]", "% of control remaining": 152.927}, {"compound": "COc1cc2cc(CN(Cc3cccnc3)C(=O)Nc3ccc(F)cc3)c(=O)[nH]c2cc1OC", "note": "[CBK108193]", "% of control remaining": 130.931}, {"compound": "CC(C)N(CCOc1nccnc1/C=C/c1ccccc1)C(C)C", "note": "[CBK106889]", "% of control remaining": 150.977}, {"compound": "Nc1ncc(-c2ccoc2)nc1-c1ccc(C(=O)N2CCOCC2)cc1", "note": "[CBK064076]", "% of control remaining": 106.021}, {"compound": "O=C(c1ccno1)N1CCc2ccccc21", "note": "[CBK200409]", "% of control remaining": 121.548}, {"compound": "Cn1c(=O)n(C)c2cc(S(=O)(=O)NCCOc3ccc(C(=O)O)cc3)ccc21", "note": "[CBK299824]", "% of control remaining": 131.814}, {"compound": "O=C(Nc1ccccc1[N+](=O)[O-])C1Cc2ccccc2CN1S(=O)(=O)c1ccc(F)cc1", "note": "(stereo not drawn) [CBK266129]", "% of control remaining": 207.937}, {"compound": "CCOC(=O)c1ccc(N2C(=O)CC(N3CCCc4ccccc43)C2=O)cc1", "note": "(stereo not drawn) [CBK268720]", "% of control remaining": 108.949}, {"compound": "COc1nccnc1OC1CCN(CC(=O)Nc2c(C)cccc2C)CC1", "note": "[CBK084249]", "% of control remaining": 112.852}, {"compound": "O=C(CC[C@@H]1CNC(=O)[C@@H]2C[C@H](NC(=O)c3cccc(F)c3)CN12)Nc1ccccc1", "note": "[CBK289008]", "% of control remaining": 139.396}, {"compound": "CC(=O)c1ccc(NC(=O)N2Cc3nc[nH]c3C[C@H]2c2nc(-c3ccc(F)cc3)no2)cc1", "note": "[CBK288971]", "% of control remaining": 117.599}, {"compound": "CCN(CC)Cc1c(O)ccc2occ(C(=O)c3cc(OC)ccc3OC)c12", "note": "[CBK261949]", "% of control remaining": 132.347}, {"compound": "O=C(c1ccccc1F)N1CCN(C2CCN(Cc3ccccc3)CC2)CC1", "note": "[CBK263404]", "% of control remaining": 105.376}, {"compound": "CC(C)C(=O)Nc1ccc(-c2csc(N3CCN(C)CC3)n2)cc1", "note": "[CBK304317C]", "% of control remaining": 94.1234}, {"compound": "COc1ccccc1CN(CCCN)C(=O)NC(C)c1ccccc1", "note": "(stereo not drawn) [CBK034667C]", "% of control remaining": 103.609}, {"compound": "CCOC(=O)c1sc(C)c(C(N)=O)c1/N=C1\\CCCN1", "note": "[CBK020893]", "% of control remaining": 113.062}, {"compound": "COc1ccc(C(=O)Nc2c(OC)cc(F)cc2OC2CCNCC2)cc1", "note": "[CBK050294T]", "% of control remaining": 113.059}, {"compound": "CCC(Sc1nnc2c(n1)[nH]c1ccccc12)C(=O)Nc1sc2c(c1C#N)CCCC2", "note": "(stereo not drawn) [CBK263917]", "% of control remaining": 131.017}, {"compound": "Cc1cc(C)n(-c2ccc3nnc(CCC(=O)O)n3n2)n1", "note": "[CBK307616]", "% of control remaining": 120.156}, {"compound": "c1ccc(-c2cccc(-c3cc(N4CCN(CCN5CCCC5)CC4)ncn3)c2)cc1", "note": "[CBK091164]", "% of control remaining": 136.984}, {"compound": "CCOC(=O)C1CCN(C(=O)CCn2ccc3ccncc32)CC1", "note": "[CBK284720]", "% of control remaining": 141.526}, {"compound": "N#CCCn1cc(C(=O)N2CCCCC2)c(-c2ccccc2)n1", "note": "[CBK305931]", "% of control remaining": 102.063}, {"compound": "COc1ccc(N2CCN(c3cc(-c4cc(C(F)(F)F)cc(C(F)(F)F)c4)ncn3)CC2)cc1OC", "note": "[CBK091020]", "% of control remaining": 95.7562}, {"compound": "O=C(Oc1cccc(NC(=O)c2ccco2)c1)c1cccc(S(=O)(=O)N2CCOCC2)c1", "note": "[CBK262272]", "% of control remaining": 99.3748}, {"compound": "COc1ccc([N+](=O)[O-])c(Oc2cccc(C(F)(F)F)c2)n1", "note": "[CBK002796]", "% of control remaining": 108.871}, {"compound": "O=C(Nc1cccc(O)c1)c1ccc2c(c1)C(=O)N(c1cccc(N3C(=O)c4ccc(C(=O)Nc5cccc(O)c5)cc4C3=O)n1)C2=O", "note": "[CBK261199]", "% of control remaining": 99.3519}, {"compound": "CCC(CC)C(=O)Nc1nc(OC)cnc1-c1cccc(C(=O)N(C)C)c1", "note": "[CBK145392]", "% of control remaining": 106.466}, {"compound": "Cc1ccc(CCSCC(=O)O)cn1", "note": "[CBK261072]", "% of control remaining": 112.509}, {"compound": "COC(=O)CCC(=O)NNC(=O)c1cccc(Br)c1", "note": "[CBK261606]", "% of control remaining": 100}, {"compound": "COc1cc(C)c(CN2CCN(S(=O)(=O)c3cc(C(=O)O)cs3)CC2)cc1OC", "note": "[CBK297093]", "% of control remaining": 117.03}, {"compound": "CCCCN1CCC2CN(CCCC(c3ccc(F)cc3)c3ccc(F)cc3)CCN2C1=O", "note": "(stereo not drawn) [CBK024880C]", "% of control remaining": 106.134}, {"compound": "Cc1ccc(-c2cccc(N3CCN(CCN4CCCC4)CC3)n2)cc1C", "note": "[CBK037799]", "% of control remaining": 155.438}, {"compound": "Cc1nn(C)cc1-c1cncn1CC(C)N1CCC(C)CC1", "note": "(stereo not drawn) [CBK281789]", "% of control remaining": 144.274}, {"compound": "c1c(C2CC2)[nH]c2nc(N3CCCC3)nc(N3CCCC3)c12", "note": "[CBK016707G]", "% of control remaining": 11.0597}, {"compound": "O=C(OCCN1CCOCC1)c1ccccc1I", "note": "[CBK033860]", "% of control remaining": 112.794}, {"compound": "COc1ccc(CC2CCCN2C(=O)Cn2cncn2)cc1", "note": "(stereo not drawn) [CBK306351]", "% of control remaining": 130.441}, {"compound": "O=C(O)CNC(=O)CCn1c(-c2ccccc2)cc2ccccc21", "note": "[CBK286780]", "% of control remaining": 127.044}, {"compound": "CCOC(=O)N1CCC(NCC(C)(C)CN(C)C)CC1", "note": "[CBK028516]", "% of control remaining": 117.826}, {"compound": "CCc1nn(CC(=O)NCC2CC2)c(=O)c2cc3sccc3n12", "note": "[CBK284055]", "% of control remaining": 139.757}, {"compound": "Cc1cc(C)n(C2CCN(Cc3nc4ccccc4[nH]3)CC2)n1", "note": "[CBK281620]", "% of control remaining": 124.848}, {"compound": "COc1ccc(NC(=O)N[C@@H]2C=C[C@@H](c3c(C)nn(CCC#N)c3C)C2)cc1", "note": "[CBK288804]", "% of control remaining": 114.882}, {"compound": "O=C(NC(c1ccccc1)c1ccsc1)C1CCN(C2Cc3ccccc3C2)CC1", "note": "(stereo not drawn) [CBK148541]", "% of control remaining": 113.627}, {"compound": "CCCNC(=O)C[C@@H]1CCN(C(=O)c2ccnc(Cl)c2)C[C@@H]1CC", "note": "[CBK289138]", "% of control remaining": 105.046}, {"compound": "O=C(O)c1cc(-c2ccccc2)oc1CSCCO", "note": "[CBK286559]", "% of control remaining": 113.469}, {"compound": "COCc1nc(NCCn2c(C)cc(C)nc2=O)cc(C2CCOC2)n1", "note": "(stereo not drawn) [CBK307495]", "% of control remaining": 114.527}, {"compound": "CC(C)CN(CC(N)=O)CC(=O)NC1(c2ccccc2)CCC1", "note": "[CBK066883T]", "% of control remaining": 121.926}, {"compound": "NC(=O)CN1CCCN(c2ccnc(OCCN3CCOCC3)n2)CC1", "note": "[CBK083804]", "% of control remaining": 114.393}, {"compound": "COc1ccc(-c2cnc(N)c(N3CCC[C@@H]3CO)n2)c(OC)c1OC", "note": "[CBK063505]", "% of control remaining": 132.891}, {"compound": "CCCc1cc(C(=O)N2CCN(C)C3(CCNC(=O)CC3)C2)ccn1", "note": "(stereo not drawn) [CBK306815]", "% of control remaining": 137.415}, {"compound": "Cc1cccc(-c2nnn(CC(=O)O)n2)c1", "note": "[CBK068105]", "% of control remaining": 99.6665}, {"compound": "COc1cc(NC(=O)c2nc[nH]n2)c(OC)cc1Cl", "note": "[CBK288170]", "% of control remaining": 104.214}, {"compound": "O=C(Cn1cnc2ccc(F)cc2c1=O)N1Cc2ccccc2C(c2ccccc2)C1", "note": "(stereo not drawn) [CBK296767]", "% of control remaining": 133.025}, {"compound": "CC(=O)Nc1ccc(C(=O)Nc2ccc(S(=O)(=O)N3CCOCC3)cc2)cc1", "note": "[CBK264763]", "% of control remaining": 128.132}, {"compound": "Cc1ccc2c(N)c(C(=O)Nc3ccc(C#N)cc3)sc2n1", "note": "[CBK115348]", "% of control remaining": 111.298}, {"compound": "Cc1ccc(S(=O)(=O)N(CC(=O)O)c2ccc(Br)cc2)cc1", "note": "[CBK287125]", "% of control remaining": 122.449}, {"compound": "COc1ccc(-c2nc(NC(=O)Cc3ccccc3OC(F)(F)F)cnc2-c2cccc(C)c2)cc1", "note": "[CBK037551]", "% of control remaining": 168.586}, {"compound": "O=C(O)c1ccc(-c2ccc(/C=C3/NC(=O)N(c4ccc(Cl)cc4)C3=O)o2)cc1", "note": "[CBK077970]", "% of control remaining": 87.3138}, {"compound": "Cn1ccc(C(=O)NC(Cc2ccsc2)c2ccccn2)cc1=O", "note": "(stereo not drawn) [CBK285273]", "% of control remaining": 104.838}, {"compound": "N#Cc1ccc(C(=O)N2CCC3(CC2)NC(=O)c2cc(-c4ccoc4)ccc2O3)cc1", "note": "[CBK115852]", "% of control remaining": 139.501}, {"compound": "O=C(c1ccc(F)cc1)N1CCC(O)(c2ccccn2)CC1", "note": "[CBK283669]", "% of control remaining": 101.973}, {"compound": "Cn1nc(CC(=O)Nc2ccccc2C(=O)O)c2ccccc2c1=O", "note": "[CBK286558]", "% of control remaining": 110.166}, {"compound": "O=C(Cn1cnc2c(cnn2-c2cccc(Cl)c2)c1=O)N1CCCCC1", "note": "[CBK287691]", "% of control remaining": 144.482}, {"compound": "COc1ccc([C@@]23CC[C@@H](NC(=O)Nc4ccc(Cl)c(C(F)(F)F)c4)C[C@@H]2N(C)CC3)cc1OC", "note": "[CBK038224C]", "% of control remaining": 133.554}, {"compound": "O=C(c1cccnc1)N1C2CCC1CC(c1ccc(F)cc1)C2", "note": "(stereo not drawn) [CBK283762]", "% of control remaining": 111.349}, {"compound": "COc1ccc([C@@]23CC[C@@H](NC(=O)Nc4ccccc4C#N)C[C@@H]2N(C)CC3)cc1OC", "note": "[CBK047540T]", "% of control remaining": 59.315}]}]}
